Article PMC3174154, “Protein-Protein Interactions in Crystals of the Human Receptor-Type Protein Tyrosine Phosphatase ICA512 Ectodomain” (PLoS ONE, 2011)
These are yes or no findings as the source states them, for the method shown.

Biological target: T1, mature ectodomain of ICA512 (ME ICA512), wild type, residues 470 to 558 (human) (UniProt Q16849)
T1 sequence: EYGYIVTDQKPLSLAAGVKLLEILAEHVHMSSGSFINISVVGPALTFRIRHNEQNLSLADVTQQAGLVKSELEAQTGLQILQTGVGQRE
Assay: SEC; Superose 12, 20°C, 20 mM sodium phosphate, 150 mM NaCl, pH 7.0; each variant injected at 500 µM in 100 µl, alone or preincubated and injected together; both purified

B1: S508A ME ICA512 (domain or fragment, UniProt Q16849 470-558)
chain: EYGYIVTDQKPLSLAAGVKLLEILAEHVHMSSGSFINIAVVGPALTFRIRHNEQNLSLADVTQQAGLVKSELEAQTGLQILQTGVGQRE
**Q.** With B1 as the binder, how does the binding read?
**A.** Its binding is “no binding (tested: 500 µM of each injected)”.
